No constants are given. Whether binding was seen depends on the method and setting. Binding seen in cells or lysates may run through a third protein. Some results given as binding are weak or reduced against the parent protein; the word gives no strength. For some assays here: Where a sequence is shown, tags or fusion partners need not be part of it.
Assays:
Fg-Usp7 (Drosophila) = target: T1, Fg-Usp7 (Drosophila) (UniProt Q9VYQ8); assay: co-IP; S2 cells transfected with tagged constructs, harvested 48 h after transfection, IP and immunoblot; in some panels with co-expressed Hpo, Hpo-KD, Wts or Wts-KD
T1 sequence: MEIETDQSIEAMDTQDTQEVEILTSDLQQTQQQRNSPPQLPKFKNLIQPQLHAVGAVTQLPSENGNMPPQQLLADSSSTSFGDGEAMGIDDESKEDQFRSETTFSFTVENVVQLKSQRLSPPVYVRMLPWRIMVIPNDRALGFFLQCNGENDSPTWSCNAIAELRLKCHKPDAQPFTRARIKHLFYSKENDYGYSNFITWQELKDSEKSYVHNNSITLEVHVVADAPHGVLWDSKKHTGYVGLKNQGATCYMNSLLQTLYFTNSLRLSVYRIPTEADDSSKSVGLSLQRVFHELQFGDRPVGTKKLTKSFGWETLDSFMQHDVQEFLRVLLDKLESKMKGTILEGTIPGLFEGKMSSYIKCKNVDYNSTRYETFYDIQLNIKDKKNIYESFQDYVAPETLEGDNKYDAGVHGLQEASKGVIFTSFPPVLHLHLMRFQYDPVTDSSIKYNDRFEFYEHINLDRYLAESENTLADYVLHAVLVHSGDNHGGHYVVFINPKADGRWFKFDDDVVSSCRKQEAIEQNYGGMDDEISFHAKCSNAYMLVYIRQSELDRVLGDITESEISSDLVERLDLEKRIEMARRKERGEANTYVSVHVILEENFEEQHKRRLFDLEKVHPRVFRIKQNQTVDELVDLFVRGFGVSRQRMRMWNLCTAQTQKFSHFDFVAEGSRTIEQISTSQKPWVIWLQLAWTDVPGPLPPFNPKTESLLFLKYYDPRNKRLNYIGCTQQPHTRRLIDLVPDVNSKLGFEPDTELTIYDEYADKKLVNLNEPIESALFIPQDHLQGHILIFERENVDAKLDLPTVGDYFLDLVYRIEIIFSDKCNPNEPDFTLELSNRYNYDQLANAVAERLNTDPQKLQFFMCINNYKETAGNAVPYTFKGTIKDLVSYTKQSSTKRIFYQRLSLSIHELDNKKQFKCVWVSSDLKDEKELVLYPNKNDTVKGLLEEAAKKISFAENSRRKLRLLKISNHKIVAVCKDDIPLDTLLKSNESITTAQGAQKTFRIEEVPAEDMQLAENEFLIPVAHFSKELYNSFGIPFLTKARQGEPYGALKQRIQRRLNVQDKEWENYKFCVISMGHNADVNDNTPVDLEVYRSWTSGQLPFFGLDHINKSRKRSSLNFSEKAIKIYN

Protein sequences, listed by entry. Tags and fused reporters are not part of them.
UniProt P19538: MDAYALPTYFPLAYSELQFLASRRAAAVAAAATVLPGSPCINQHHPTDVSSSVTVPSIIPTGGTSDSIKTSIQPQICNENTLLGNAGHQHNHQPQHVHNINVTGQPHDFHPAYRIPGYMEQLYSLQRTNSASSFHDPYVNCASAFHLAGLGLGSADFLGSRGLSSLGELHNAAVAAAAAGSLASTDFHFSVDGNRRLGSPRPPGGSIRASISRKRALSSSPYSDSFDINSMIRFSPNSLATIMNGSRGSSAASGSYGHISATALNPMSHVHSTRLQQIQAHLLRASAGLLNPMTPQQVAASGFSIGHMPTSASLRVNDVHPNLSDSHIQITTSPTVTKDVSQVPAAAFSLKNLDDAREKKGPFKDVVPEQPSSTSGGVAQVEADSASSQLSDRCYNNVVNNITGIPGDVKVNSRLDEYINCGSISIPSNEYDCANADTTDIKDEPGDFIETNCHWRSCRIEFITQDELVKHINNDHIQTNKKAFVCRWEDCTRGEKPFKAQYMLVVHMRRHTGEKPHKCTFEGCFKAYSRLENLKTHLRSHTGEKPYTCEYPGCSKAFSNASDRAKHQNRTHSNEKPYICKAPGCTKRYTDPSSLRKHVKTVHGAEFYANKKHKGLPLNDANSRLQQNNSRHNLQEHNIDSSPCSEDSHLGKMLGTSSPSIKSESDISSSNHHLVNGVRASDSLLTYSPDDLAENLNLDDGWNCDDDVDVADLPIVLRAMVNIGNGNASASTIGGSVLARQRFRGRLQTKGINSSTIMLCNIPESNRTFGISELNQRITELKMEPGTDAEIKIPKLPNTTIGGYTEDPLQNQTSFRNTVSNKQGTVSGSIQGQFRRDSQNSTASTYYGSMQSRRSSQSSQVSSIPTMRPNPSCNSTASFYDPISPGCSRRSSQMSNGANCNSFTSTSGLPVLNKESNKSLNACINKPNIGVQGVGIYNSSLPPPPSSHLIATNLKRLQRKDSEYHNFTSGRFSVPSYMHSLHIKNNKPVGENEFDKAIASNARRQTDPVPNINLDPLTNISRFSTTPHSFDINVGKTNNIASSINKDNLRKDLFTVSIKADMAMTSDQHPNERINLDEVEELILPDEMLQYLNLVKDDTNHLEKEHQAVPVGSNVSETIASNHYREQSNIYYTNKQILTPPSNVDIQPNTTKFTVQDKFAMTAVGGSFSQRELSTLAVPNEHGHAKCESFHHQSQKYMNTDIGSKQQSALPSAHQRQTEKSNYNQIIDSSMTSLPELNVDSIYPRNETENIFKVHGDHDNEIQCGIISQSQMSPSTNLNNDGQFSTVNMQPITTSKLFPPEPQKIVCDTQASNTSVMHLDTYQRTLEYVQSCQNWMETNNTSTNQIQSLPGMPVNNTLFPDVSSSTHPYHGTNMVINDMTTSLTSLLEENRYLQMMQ

Myc-Yki (Drosophila) = target: T2, Myc-Yki (Drosophila) (UniProt Q45VV3); assay: as above
T2 sequence: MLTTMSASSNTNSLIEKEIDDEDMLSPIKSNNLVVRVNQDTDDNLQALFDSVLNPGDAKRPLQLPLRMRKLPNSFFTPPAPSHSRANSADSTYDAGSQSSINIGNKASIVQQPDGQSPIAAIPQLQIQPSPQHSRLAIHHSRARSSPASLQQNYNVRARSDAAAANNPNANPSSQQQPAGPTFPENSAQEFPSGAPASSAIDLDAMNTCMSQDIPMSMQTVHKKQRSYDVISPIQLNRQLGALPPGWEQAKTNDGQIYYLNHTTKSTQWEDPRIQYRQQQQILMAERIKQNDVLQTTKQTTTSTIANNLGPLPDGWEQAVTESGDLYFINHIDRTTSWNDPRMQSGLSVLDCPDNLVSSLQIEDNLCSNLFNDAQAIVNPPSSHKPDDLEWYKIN

| Molecule | binding (Fg-Usp7 (Drosophila)) | binding (Myc-Yki (Drosophila)) |
| --- | --- | --- |
| HA-Ci (from UniProt P19538 1-1397) | binds | – |
| Fg-Usp7 (enzyme, UniProt Q9VYQ8 1-1129) MEIETDQSIEAMDTQDTQEVEILTSDLQQTQQQRNSPPQLPKFKNLIQPQLHAVGAVTQLPSENGNMPPQQLLADSSSTSFGDGEAMGIDDESKEDQFRSETTFSFTVENVVQLKSQRLSPPVYVRMLPWRIMVIPNDRALGFFLQCNGENDSPTWSCNAIAELRLKCHKPDAQPFTRARIKHLFYSKENDYGYSNFITWQELKDSEKSYVHNNSITLEVHVVADAPHGVLWDSKKHTGYVGLKNQGATCYMNSLLQTLYFTNSLRLSVYRIPTEADDSSKSVGLSLQRVFHELQFGDRPVGTKKLTKSFGWETLDSFMQHDVQEFLRVLLDKLESKMKGTILEGTIPGLFEGKMSSYIKCKNVDYNSTRYETFYDIQLNIKDKKNIYESFQDYVAPETLEGDNKYDAGVHGLQEASKGVIFTSFPPVLHLHLMRFQYDPVTDSSIKYNDRFEFYEHINLDRYLAESENTLADYVLHAVLVHSGDNHGGHYVVFINPKADGRWFKFDDDVVSSCRKQEAIEQNYGGMDDEISFHAKCSNAYMLVYIRQSELDRVLGDITESEISSDLVERLDLEKRIEMARRKERGEANTYVSVHVILEENFEEQHKRRLFDLEKVHPRVFRIKQNQTVDELVDLFVRGFGVSRQRMRMWNLCTAQTQKFSHFDFVAEGSRTIEQISTSQKPWVIWLQLAWTDVPGPLPPFNPKTESLLFLKYYDPRNKRLNYIGCTQQPHTRRLIDLVPDVNSKLGFEPDTELTIYDEYADKKLVNLNEPIESALFIPQDHLQGHILIFERENVDAKLDLPTVGDYFLDLVYRIEIIFSDKCNPNEPDFTLELSNRYNYDQLANAVAERLNTDPQKLQFFMCINNYKETAGNAVPYTFKGTIKDLVSYTKQSSTKRIFYQRLSLSIHELDNKKQFKCVWVSSDLKDEKELVLYPNKNDTVKGLLEEAAKKISFAENSRRKLRLLKISNHKIVAVCKDDIPLDTLLKSNESITTAQGAQKTFRIEEVPAEDMQLAENEFLIPVAHFSKELYNSFGIPFLTKARQGEPYGALKQRIQRRLNVQDKEWENYKFCVISMGHNADVNDNTPVDLEVYRSWTSGQLPFFGLDHINKSRKRSSLNFSEKAIKIYN | – | binds |
